Results are given in words; binding and its absence hold for the method and conditions named. Binding seen in cells or lysates may run through a third protein. A result given as binding can be weak or reduced; the word gives no strength.
Target: MYC-tagged human ZIP4H (human) (UniProt Q8IYF3)
Assay: co-IP; IP-Western blots on 293T cells transiently expressing MYC-tagged human ZIP4H; endogenous NBS1

Amino acid sequences for entries named in this document (tags omitted). A change or cut given only in a name is not applied to a line headed by its entry.
UniProt Q8IYF3: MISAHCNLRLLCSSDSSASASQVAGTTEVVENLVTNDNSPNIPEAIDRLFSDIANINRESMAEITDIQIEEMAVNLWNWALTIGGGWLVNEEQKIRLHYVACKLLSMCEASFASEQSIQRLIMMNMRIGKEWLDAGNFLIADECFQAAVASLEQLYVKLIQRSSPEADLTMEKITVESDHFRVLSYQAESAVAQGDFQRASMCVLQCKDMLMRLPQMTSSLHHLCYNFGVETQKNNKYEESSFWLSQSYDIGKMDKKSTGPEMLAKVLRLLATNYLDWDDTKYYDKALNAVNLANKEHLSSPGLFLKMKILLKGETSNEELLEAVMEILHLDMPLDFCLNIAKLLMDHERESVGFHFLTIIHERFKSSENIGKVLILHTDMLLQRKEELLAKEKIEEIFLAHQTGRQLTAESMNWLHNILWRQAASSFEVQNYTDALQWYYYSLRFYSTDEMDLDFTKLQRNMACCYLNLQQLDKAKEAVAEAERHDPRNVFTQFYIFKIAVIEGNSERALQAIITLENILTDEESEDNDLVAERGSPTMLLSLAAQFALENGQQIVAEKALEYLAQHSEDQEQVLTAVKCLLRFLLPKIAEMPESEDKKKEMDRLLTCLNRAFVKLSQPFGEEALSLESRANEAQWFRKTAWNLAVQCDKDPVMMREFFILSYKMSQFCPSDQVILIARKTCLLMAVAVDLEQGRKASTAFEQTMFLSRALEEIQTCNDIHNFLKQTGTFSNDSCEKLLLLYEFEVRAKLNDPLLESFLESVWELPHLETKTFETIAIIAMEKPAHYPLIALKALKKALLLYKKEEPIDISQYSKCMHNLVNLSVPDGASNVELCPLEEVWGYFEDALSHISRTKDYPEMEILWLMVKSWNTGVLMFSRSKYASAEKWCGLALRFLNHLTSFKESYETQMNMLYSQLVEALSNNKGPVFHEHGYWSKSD
UniProt O60934: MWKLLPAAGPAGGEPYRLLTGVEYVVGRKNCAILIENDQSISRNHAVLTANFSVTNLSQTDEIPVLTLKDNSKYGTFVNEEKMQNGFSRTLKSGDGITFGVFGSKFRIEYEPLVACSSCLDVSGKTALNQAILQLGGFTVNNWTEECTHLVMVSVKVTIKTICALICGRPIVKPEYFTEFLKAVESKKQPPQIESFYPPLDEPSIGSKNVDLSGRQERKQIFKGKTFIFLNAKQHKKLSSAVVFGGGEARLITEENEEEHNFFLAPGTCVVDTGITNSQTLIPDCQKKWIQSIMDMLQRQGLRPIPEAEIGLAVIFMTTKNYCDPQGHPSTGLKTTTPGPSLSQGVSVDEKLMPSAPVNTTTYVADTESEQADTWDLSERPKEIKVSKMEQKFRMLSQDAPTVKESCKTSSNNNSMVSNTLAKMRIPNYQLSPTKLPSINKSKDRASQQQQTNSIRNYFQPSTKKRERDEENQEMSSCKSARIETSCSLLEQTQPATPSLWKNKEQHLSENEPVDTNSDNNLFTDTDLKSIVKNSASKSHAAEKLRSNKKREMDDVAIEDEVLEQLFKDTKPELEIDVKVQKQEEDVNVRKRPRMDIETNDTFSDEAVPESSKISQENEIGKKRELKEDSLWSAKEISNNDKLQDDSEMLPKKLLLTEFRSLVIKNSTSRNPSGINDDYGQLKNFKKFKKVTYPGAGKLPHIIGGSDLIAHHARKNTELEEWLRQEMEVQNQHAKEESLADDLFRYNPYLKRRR

Endogenous human NBS1 (from UniProt O60934 1-754)
binding: binds weakly

Source: paper PMC2267488
